Assay results reported in US20060094674A1, “Combination of mtor inhibitor and a tyrosine kinase inhibitor for the treatment of neoplasms” (priority 2002, published 2006).

Test system: Ba/F-FLT3-ITD cells
Test: [3H]-thymidine proliferation assay, PKC412-sensitive Ba/F-FLT3-ITD cells
Type: cell-based
Conditions: PKC412 at indicated concentrations; 48 hours

CO[C@@H]1[C@H](N(C)C(=O)c2ccccc2)C[C@H]2O[C@]1(C)n1c3ccccc3c3c4c(c5c6ccccc6n2c5c31)C(=O)NC4 [PKC412]
inhibition of proliferation: inhibited the proliferation of Ba/F-FLT3-ITD cells in a dose-dependent manner
